Each structure is given as a SMILES string. The list shows a part of the results.

We go through 80 molecules from paper PMC12040169 (PLOS Biology, 2025).

The subject of this assay is T1, CTL2-GFP (C. trachomatis L2/434/Bu, GFP-expressing).
T1 construct: L2/434/Bu, GFP-expressing
Details: species or system HeLa; Intracellular C. trachomatis growth in HeLa cells, bulk GFP fluorescence relative to DMSO. The following applies: bulk GFP, single well; 28.5 h, 10 µM; inhibitor.
As for `CCOC(=O)Cc1csc(NS(=O)(=O)c2cc(C)c(Cl)cc2Cl)n1` [CBK012872], the “% of control remaining” value is given as 107.504%.
Take `COc1ccc(Cl)cc1S(=O)(=O)N1CCC(C(=O)O)CC1` [CBK269607]: the “% of control remaining” value is 157.786%.
Take `CC1=C[C@@H](CNC(=O)NC2CCCCC2)[C@H](C(C)C)C[C@H]1CC(=O)O` [CBK289211]: the “% of control remaining” value is given as 144.783%.
Regarding `O=c1[nH]c2ncc(-c3ccco3)nc2n1Cc1cccs1` [CBK064438], the “% of control remaining” value came to 164.298%.
The same measure for `CC(=O)Nc1cccc(-c2cncc(NCc3ccco3)n2)c1` [CBK065290]: 149.501%; for `Cc1ccc(S(=O)(=O)Nc2ccccc2-c2nc3ccccc3c(=O)o2)cc1` [CBK087613]: 119.79%.
With `CN(C)CCN(C)c1nc(-c2ccc(Oc3ccccc3)cc2)cn2ccnc12` [CBK066469], the “% of control remaining” value is 200.38%.
The same measure for `O=C(O)CC(c1ccncc1)c1c[nH]c2ccccc12` (centres unmarked) [CBK286913]: 129.729%; for `O=[N+]([O-])c1ccc(N/N=C/c2cnn(-c3ccccc3)c2)cc1` [CBK018746]: 82.0579%.
With `CCCC1(C)NC(=O)N(Cc2coc(-c3cccs3)n2)C1=O` (centres unmarked) [CBK305594], the “% of control remaining” value is 150.967%.
To `Nc1nc2c(s1)c(=O)[nH]c(=O)n2-c1ccc(Cl)cc1` [CBK269891] belongs 154.883%; to `O=C(NCCN1CCCCC1)C1CC(=O)N(Cc2ccco2)C1` (centres unmarked) [CBK304877], 129.152%; to `O=C(/C=C/c1cccnc1)Nc1cccc(N2CCNCC2)c1` [CBK034128T], 88.8375%.
The same measure for `O=C(CCCCCN1C(=O)c2ccccc2C1=O)Nc1cccc(C(=O)O)c1` [CBK287261]: 163.98%; for `Cc1cc(N2CCCC(COc3ccccc3F)C2)nc(N)n1` (centres unmarked) [CBK306714]: 52.8353%.
With `O=C(CN1CCc2c([nH]c3ccccc23)C12CCN(Cc1ccc(F)cc1)C2)Nc1ccccc1` (centres unmarked) [CBK059450], the “% of control remaining” value is 102.101%.
To `CS(=O)(=O)c1ccc(-n2cc(CN3CCC(Sc4ccccc4)CC3)nn2)cc1` [CBK149468] belongs 108.694%; to `O[C@@H]1C[C@@H](c2nc(-c3ccc4c(c3)OCO4)no2)N(Cc2cc3ccccc3o2)C1` [CBK288868], 109.02%.
For the molecule `CC(Cn1cccn1)NCC(=O)N(C)C1(C#N)CCCCC1` (centres unmarked) [CBK305096], the “% of control remaining” value was 125.129%.
As for `CCc1onc(C)c1C(=O)NC(Cc1ccsc1)c1nccs1` (centres unmarked) [CBK285142], the “% of control remaining” value stood at 104.774%.
To `CC(C)[C@@H](CO)Nc1nc(-c2cccc3ccccc23)cnc1N` [CBK063725] belongs 179.072%.
To `CCN1CCC2CCC(C1)N2Cc1ccc(Oc2cnccn2)cc1` (centres unmarked) [CBK304034] belongs 107.612%; to `C[C@@H](Nc1nccnc1-c1cccc(F)c1)c1ccccc1` [CBK036733], 83.1141%.
With `CN(C)CCN(C)c1cncc(-c2cccc(C(F)(F)F)c2)n1` [CBK065584], the “% of control remaining” value was determined as 121.519%.
As to `Cc1ccc(CC(=O)Nc2nc(Cc3n[nH]c(=S)n3C)cs2)cc1` [CBK296766], the “% of control remaining” value is reported as 126.813%.
Turning to `CCC(C)C(NC(=O)c1ccccc1NC(=O)c1ccc(OC)cc1)C(=O)O` (centres unmarked) [CBK296090], the “% of control remaining” value is listed as 131.176%.
To `c1ccc2cc(-c3cnc(N4CCOCC4)c4nccn34)ccc2c1` [CBK091307] belongs 115.081%.
Regarding `O=S(=O)(c1ccccc1)N1CC2(CCNCC2)c2ccccc21` [CBK137413], the “% of control remaining” value came out at 155.793%.
As to `CSc1cccc(NC(=O)N2CCN(C(=O)C3CCCO3)CC2)c1` (centres unmarked) [CBK043283], the “% of control remaining” value came to 80.4458%.
To `COc1c(C(N)=O)c(O)c(OC)c2occc12` [CBK016255] belongs 121.191%; to `Cc1c(NC(=O)CSc2nnc(-c3ccc4ccccc4n3)s2)c(=O)n(-c2ccccc2)n1C` [CBK269341], 150.21%; to `O=C(CC1(C(F)(F)F)NCCN1)c1cccc([N+](=O)[O-])c1` [CBK263443], 123.865%.
To `CCOc1cc(C=O)ccc1OCc1c(C)no[n+]1[O-]` [CBK263449] belongs 129.578%.
As to `FC(F)(F)c1nc2ccccc2nc1SCc1cccs1` [CBK103728], the “% of control remaining” value stood at 96.239%.
The same measure for `Cc1ccccc1CN1CCC(O)(c2cccnc2F)CC1` [CBK284376]: 88.9487%; for `CC1CCc2c(sc(NC(=O)Cn3cnc([N+](=O)[O-])n3)c2C(N)=O)C1` (centres unmarked) [CBK263064]: 110.539%; for `O=C(O)CC1(O)C(=O)N(Cc2ccccc2)c2ccccc21` (centres unmarked) [CBK286673]: 132.171%.
To `O=c1nc(NC2CCCCC2)sc2ncccc12` [CBK067024T] belongs 114.37%; to `COc1cc(-c2cnc3[nH]c(=O)n(Cc4ccco4)c3n2)cc(OC)c1OC` [CBK064755], 159.859%; to `Cc1nn(C)cc1-c1cncn1CCOc1ccc(Cl)cc1` [CBK281508], 140.84%.
Consider `O=C1COc2ccccc2C/C=C/CC2(CCN(CC(=O)N3CCCC3)CC2)CN1` [CBK292126], for which the “% of control remaining” value stood at 106.256%.
To `Nc1c(Cc2c(Cl)cccc2Cl)c(=O)n2n1CCC2` [CBK088948] belongs 103.167%.
To `OCC12COC3c4ccccc4C(OC1)N32` (centres unmarked) [CBK006347] belongs 114.717%.
To `O=C(Cn1ncc2ccccc2c1=O)NNC(=S)NC1CC2CCC1C2` (centres unmarked) [CBK267892] belongs 97.8145%; to `CCCCC(c1cccnc1)N(C)C(=O)Cn1ccccc1=O` (centres unmarked) [CBK306936], 115.395%; to `CC1CN(Cc2nc3c(c(=O)n(C)c(=O)n3C)n2CCCc2ccccc2)CC(C)O1` (centres unmarked) [CBK269349], 105.649%.
As to `Clc1ccc(-n2ncc(-c3ccsc3)n2)cc1Cl` [CBK112843], the “% of control remaining” value turned out to be 118.885%.
As to `COc1cc(-c2nc(C(C)=O)c(C)n2O)cc(OC)c1OC` [CBK270083], the “% of control remaining” value came out at 108.859%.
The same measure for `O=C(N[C@H]1C[C@H](c2nnc(CO)n2C2CC2)C1)c1ccc(Cl)c(F)c1` [CBK307093]: 109.019%; for `O=C(O)C1CC(=O)N(Cc2ccccc2)C1c1ccccc1` (centres unmarked) [CBK286876]: 113.192%; for `O=C(O)CCCC(=O)Nc1ccccc1C(=O)NCc1ccco1` [CBK299840]: 143.423%.
To `C=CCNC(=O)N[C@H]1C[C@H]2C(=O)Nc3cc(Cl)ccc3C(=O)N2C1` [CBK289365] belongs 110.183%.
To `CCCn1nccc1C(=O)NC1CCCN(Cc2cccc(OC)c2)C1` (centres unmarked) [CBK306563] belongs 136.475%; to `O=C(c1cccnc1)C1CCN(C(=O)Cc2ccccc2Cl)CC1` [CBK283690], 145.272%; to `CC(C)(C)c1nnc(NCC2CCCCC2)s1` [CBK075043], 117.523%.
Regarding `Cc1cc(C(=O)NCc2cccnc2N(C)C2CCCCC2)[nH]n1` [CBK306668], the “% of control remaining” value is recorded as 106.289%.
To `CCn1cc(S(=O)(=O)NCc2ccccc2F)cn1` [CBK270306] belongs 95.7074%; to `COc1ccc(N2CCN(c3cc(-c4ccccc4OCc4ccccc4)ncn3)CC2)cc1OC` [CBK091024], 97.8699%.
`CCOC(=O)CC(O)(c1ccc(OC)cc1)c1cc(C)no1` (centres unmarked) [CBK023133]: the “% of control remaining” value stood at 117.719%.
Take `CN(C)CCN1CCN(c2cccc(-c3ccc(-c4ccccc4)cc3)n2)CC1` [CBK037610]: the “% of control remaining” value was determined as 129.653%.
In the case of `C=CCn1c(C)c(CN2CCc3c(nc(C)[nH]c3=O)C2)c2ccccc21` [CBK283990], the “% of control remaining” value was 146.194%.
To `O=C(NCc1ccc2c(c1)OCO2)C1CN(S(=O)(=O)c2ccccc2)CCN1S(=O)(=O)c1ccccc1` (centres unmarked) [CBK267059] belongs 183.483%.
The same measure for `O=C1c2ccccc2C2OCc3ccccc3N12` (centres unmarked) [CBK109952]: 124.237%; for `O=C(NCCCCn1ccnc1)c1noc2c1CCCC2` [CBK283208]: 124.189%.
To `Cc1ccc2nc(C)cc(NCCO)c2c1` [CBK126909] belongs 73.5079%.
In the case of `OCCN1CC2(CCN(Cc3cccc4cccnc34)CC2)c2ccccc21` [CBK137014], the “% of control remaining” value is 118.238%.
Regarding `O=C1S/C(=C/c2ccc(Cl)cc2)C(=O)N1c1ccc(F)cc1` [CBK113265], the “% of control remaining” value came out at 98.0911%.
The same measure for `CN(C)CCN1C(=O)CCc2ccccc21` [CBK023390C]: 138.231%; for `COC(=O)CCC(=O)N1CCC(Cn2cncn2)(C2CCCCC2)CC1` [CBK136810]: 134.68%.
The same measure for `OC(Cc1ccccc1)c1cc2n(n1)CCN(Cc1ccsc1)C2` (centres unmarked) [CBK307603]: 119.129%; for `O=C(c1cccc([N+](=O)[O-])c1)N1CCN(S(=O)(=O)N2CCOCC2)CC1` [CBK267469]: 110.272%.
In the case of `O=C(N1CCC=C(F)C1)C12CCOCC1CN(c1ncccn1)C2` (centres unmarked) [CBK304264], the “% of control remaining” value turned out to be 104.088%.
Turning to `CN(C)c1ccc(-c2cc(N3CCN(S(=O)(=O)c4ccc(Cl)cc4)CC3)ncn2)cc1` [CBK091158], the “% of control remaining” value was 169.731%.
As to `CN(C)Cc1cc(-c2ccccc2F)nn1CCNC(=O)C1CC1` [CBK282006], the “% of control remaining” value was 141.957%.
To `CSc1nsc(SCC(=O)c2cc3ccccc3oc2=O)n1` [CBK268833] belongs 126.826%.
For the molecule `CCC1C=CCC(C(=O)O)C1C(=O)Nc1ccc(C(=O)N2CCOCC2)cc1` (centres unmarked) [CBK265798], the “% of control remaining” value was determined as 221.367%.
The same measure for `CCOc1cccc(C(=O)NC(=S)Nc2nc(C)c(C(=O)OC)s2)c1` [CBK092056]: 108.852%.
For the molecule `CN1CCN(C(=O)C[C@@H]2CCNC[C@@H]2Cc2cc(CC3CCCCC3)on2)CC1` [CBK289151], the “% of control remaining” value stood at 129.88%.
The same measure for `Cc1cc2c(s1)c1cnn(CC(=O)NC3CCCC3)c(=O)c1n2C` [CBK284189]: 109.905%.
The same measure for `Cn1c(=O)c2c(nc(CN3CCC(Cc4ccccc4)CC3)n2CC(=O)c2ccccc2)n(C)c1=O` [CBK236846]: 112.541%.
